Consider 15 targets from the supplement of paper PMC6411743.

Protein sequences, listed by entry. Tags and fused reporters are not part of them. Lines headed by an entry give the natural chain unless they say otherwise; changes in a name come on top.
UniProt Q16773: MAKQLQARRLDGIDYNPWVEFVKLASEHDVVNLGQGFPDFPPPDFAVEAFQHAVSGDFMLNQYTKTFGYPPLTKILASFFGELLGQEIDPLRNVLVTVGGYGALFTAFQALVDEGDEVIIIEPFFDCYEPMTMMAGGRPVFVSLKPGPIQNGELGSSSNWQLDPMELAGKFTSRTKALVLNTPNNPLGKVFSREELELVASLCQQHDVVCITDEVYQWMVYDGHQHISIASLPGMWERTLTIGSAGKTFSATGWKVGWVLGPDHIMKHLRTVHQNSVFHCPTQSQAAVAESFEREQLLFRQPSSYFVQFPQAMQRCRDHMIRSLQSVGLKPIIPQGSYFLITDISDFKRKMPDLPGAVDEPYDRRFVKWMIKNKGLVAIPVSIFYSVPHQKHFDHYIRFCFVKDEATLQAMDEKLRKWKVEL
UniProt Q8WUX1, whole entry: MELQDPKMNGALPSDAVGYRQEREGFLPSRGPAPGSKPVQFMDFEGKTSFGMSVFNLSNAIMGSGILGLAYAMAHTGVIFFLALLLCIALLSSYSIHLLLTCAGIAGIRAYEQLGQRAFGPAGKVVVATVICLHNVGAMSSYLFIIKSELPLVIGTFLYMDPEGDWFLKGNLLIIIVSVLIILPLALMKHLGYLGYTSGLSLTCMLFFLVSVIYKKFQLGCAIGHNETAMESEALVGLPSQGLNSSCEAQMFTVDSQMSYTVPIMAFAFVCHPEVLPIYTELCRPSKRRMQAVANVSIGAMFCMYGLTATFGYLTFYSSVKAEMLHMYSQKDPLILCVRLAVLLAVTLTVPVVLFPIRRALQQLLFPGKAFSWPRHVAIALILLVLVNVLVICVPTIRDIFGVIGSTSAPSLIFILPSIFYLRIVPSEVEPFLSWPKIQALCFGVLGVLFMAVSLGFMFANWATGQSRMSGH
UniProt Q6PIZ9: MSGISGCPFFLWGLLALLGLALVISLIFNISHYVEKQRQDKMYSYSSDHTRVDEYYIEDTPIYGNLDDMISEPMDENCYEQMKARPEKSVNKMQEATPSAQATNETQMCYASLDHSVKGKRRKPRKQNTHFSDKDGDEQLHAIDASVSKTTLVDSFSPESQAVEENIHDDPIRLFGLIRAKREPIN
UniProt O75496: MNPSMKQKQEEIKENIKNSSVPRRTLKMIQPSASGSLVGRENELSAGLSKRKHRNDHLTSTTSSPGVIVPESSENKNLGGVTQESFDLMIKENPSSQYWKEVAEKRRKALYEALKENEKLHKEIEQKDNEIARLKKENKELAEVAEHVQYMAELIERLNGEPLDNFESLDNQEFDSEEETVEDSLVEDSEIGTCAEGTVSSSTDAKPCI
UniProt Q9UHQ4: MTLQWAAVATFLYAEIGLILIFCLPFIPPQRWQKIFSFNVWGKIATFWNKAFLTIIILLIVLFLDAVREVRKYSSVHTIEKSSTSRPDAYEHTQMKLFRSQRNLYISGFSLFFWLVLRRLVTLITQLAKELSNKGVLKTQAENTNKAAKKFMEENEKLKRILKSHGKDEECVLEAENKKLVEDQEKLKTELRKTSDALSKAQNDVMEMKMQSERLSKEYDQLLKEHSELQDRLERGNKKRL
UniProt Q32P44: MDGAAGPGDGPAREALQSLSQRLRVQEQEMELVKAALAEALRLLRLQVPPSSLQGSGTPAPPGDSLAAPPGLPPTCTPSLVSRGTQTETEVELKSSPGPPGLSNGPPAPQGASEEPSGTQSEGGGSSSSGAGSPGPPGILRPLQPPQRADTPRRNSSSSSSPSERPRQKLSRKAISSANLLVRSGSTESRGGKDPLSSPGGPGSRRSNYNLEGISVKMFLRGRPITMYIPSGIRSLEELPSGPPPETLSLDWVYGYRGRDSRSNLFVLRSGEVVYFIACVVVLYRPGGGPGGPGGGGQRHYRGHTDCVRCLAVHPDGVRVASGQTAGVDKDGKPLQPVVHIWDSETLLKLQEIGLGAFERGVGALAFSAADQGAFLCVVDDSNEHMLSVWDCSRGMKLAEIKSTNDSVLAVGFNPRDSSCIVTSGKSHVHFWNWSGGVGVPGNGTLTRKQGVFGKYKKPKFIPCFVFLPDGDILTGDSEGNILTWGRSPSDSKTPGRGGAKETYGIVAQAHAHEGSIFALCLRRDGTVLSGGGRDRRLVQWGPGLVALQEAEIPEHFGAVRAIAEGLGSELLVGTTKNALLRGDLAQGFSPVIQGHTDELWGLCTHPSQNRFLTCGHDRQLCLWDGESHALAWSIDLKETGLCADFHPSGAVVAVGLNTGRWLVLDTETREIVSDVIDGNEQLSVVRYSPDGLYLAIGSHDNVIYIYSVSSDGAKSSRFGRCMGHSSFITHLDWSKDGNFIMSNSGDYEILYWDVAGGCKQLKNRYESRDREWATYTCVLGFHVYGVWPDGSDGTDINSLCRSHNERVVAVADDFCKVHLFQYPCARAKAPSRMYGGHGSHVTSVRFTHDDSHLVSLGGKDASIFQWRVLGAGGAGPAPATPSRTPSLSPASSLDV
UniProt Q7Z2W4: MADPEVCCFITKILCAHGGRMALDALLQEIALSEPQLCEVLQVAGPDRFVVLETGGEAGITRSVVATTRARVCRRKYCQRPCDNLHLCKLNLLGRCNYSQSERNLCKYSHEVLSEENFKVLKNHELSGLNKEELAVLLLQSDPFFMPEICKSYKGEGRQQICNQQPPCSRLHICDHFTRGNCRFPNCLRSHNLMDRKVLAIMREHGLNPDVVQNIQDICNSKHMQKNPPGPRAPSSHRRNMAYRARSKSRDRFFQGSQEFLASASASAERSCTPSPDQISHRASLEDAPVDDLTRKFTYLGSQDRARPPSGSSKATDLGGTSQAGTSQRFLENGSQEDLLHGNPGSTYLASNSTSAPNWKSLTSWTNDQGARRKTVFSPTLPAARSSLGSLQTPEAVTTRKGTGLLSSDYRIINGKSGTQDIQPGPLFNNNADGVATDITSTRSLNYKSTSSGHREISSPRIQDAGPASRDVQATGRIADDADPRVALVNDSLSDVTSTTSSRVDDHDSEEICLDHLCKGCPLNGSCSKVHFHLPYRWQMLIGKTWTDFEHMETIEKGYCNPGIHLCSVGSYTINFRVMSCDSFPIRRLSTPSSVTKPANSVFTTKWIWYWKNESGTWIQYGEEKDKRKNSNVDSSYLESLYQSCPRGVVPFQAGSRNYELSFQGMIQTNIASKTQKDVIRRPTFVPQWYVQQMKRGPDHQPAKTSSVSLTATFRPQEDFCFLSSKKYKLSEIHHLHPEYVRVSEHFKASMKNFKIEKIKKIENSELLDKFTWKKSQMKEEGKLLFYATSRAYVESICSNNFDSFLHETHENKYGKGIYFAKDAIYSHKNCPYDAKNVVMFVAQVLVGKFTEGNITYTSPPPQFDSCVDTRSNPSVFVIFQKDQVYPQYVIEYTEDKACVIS
UniProt Q9BV97: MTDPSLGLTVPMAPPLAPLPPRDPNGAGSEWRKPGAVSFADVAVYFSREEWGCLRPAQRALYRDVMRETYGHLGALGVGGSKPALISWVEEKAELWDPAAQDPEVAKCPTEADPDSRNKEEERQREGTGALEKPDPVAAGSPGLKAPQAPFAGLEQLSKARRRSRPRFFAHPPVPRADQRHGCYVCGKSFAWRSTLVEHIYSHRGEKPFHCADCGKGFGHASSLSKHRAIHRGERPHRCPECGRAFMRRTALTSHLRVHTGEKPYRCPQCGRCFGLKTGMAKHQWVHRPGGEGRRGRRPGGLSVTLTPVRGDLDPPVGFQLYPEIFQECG
UniProt Q14BN4: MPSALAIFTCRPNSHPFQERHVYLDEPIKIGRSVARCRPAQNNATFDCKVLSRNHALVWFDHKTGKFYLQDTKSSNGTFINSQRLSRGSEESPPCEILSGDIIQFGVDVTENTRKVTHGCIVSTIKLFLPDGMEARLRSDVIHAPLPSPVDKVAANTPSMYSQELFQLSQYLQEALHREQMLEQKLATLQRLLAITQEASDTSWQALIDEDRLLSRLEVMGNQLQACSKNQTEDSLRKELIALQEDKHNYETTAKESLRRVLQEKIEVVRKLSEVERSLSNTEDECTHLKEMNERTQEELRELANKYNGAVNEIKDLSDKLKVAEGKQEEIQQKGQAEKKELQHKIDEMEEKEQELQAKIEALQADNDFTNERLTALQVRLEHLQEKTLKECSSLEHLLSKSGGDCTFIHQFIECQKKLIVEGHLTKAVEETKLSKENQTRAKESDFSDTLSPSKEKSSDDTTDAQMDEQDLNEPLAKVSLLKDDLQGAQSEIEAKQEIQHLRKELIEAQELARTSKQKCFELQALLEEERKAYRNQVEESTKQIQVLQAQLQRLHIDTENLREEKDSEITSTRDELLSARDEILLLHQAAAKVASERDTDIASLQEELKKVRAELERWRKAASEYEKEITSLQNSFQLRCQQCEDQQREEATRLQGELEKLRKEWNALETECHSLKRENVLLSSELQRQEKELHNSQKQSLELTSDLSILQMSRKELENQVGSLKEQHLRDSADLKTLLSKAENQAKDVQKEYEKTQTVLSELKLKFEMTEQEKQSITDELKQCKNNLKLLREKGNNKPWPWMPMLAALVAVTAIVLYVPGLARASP
UniProt Q92664: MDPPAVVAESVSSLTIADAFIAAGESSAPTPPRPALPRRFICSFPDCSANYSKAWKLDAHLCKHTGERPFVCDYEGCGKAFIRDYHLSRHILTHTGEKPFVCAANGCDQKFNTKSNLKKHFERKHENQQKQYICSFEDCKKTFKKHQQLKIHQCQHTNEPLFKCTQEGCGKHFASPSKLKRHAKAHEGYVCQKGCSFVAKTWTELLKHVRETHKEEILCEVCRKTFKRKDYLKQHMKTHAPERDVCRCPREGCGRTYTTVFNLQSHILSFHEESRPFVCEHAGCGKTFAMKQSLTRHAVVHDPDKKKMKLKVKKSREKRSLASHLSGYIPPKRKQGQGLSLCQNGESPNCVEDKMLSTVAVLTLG
UniProt Q13506: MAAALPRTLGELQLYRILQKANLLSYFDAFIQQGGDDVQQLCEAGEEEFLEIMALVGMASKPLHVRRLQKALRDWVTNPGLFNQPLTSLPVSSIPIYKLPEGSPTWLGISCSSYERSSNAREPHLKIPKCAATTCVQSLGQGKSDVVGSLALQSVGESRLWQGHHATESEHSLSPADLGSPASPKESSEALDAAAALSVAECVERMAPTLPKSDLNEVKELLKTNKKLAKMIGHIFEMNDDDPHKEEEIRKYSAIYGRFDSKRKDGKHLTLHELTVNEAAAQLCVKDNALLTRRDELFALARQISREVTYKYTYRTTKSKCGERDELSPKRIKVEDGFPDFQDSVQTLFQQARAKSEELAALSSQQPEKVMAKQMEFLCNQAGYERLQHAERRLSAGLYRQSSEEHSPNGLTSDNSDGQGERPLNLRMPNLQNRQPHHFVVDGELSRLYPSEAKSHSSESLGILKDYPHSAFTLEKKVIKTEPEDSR
UniProt O14727: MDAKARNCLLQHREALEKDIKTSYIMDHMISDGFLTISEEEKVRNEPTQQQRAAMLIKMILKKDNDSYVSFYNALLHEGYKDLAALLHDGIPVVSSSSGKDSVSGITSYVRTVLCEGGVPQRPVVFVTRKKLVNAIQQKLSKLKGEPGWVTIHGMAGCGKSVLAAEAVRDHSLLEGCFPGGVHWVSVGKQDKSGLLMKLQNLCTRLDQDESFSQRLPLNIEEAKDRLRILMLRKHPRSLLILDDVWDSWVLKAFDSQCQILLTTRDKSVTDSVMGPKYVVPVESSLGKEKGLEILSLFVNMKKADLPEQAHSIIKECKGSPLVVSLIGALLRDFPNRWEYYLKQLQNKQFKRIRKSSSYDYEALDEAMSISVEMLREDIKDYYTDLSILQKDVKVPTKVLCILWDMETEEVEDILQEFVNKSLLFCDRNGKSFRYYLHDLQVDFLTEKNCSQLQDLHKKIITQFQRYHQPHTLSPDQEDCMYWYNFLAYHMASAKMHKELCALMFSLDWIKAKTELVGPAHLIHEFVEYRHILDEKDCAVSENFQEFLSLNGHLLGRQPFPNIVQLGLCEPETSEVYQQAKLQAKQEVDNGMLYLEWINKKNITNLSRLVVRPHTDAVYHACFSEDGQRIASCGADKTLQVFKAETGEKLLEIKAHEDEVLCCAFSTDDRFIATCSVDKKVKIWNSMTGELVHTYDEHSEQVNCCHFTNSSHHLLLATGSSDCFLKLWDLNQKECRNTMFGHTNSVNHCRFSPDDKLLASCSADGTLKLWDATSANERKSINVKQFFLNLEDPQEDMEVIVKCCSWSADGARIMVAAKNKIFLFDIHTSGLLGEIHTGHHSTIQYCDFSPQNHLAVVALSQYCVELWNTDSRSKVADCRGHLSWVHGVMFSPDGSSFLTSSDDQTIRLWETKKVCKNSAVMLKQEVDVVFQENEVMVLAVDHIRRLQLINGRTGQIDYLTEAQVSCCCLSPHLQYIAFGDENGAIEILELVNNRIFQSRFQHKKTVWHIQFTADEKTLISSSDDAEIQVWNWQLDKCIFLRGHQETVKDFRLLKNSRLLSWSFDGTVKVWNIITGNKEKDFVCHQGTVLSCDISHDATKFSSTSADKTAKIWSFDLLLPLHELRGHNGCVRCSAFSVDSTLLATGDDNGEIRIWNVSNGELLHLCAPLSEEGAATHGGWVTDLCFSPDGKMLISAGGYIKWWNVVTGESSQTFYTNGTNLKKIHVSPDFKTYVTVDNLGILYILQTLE

± gives the standard deviation of the averaged measurements. The list shows a part of the results, in another mix than the full data.

Compound in this experiment: Nc1ncnc2c1ncn2[C@@H]1O[C@H](COP(=O)(O)OP(=O)(O)NP(=O)(O)O)[C@@H](O)[C@H]1O [adenylyl imidodiphosphate]
In words: NP40-soluble protein abundance relative to vehicle (solubility fold change) (ratio); higher = more soluble protein in presence of AMP-PNP. In a few lines: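 In three independent experiments, Jurkat crude lysate made by Dounce homogenisation was treated for 10 min at room temperature and then 3 min at 37 °C with eight concentrations ranging from 0.1 to 10 mM. It was then solubilised with 0.8% NP40 plus benzonase for 60 min at 4 °C and ultracentrifuged. The supernatant was TMT-labelled for LC-MS/MS, and each value is the fold change against the detergent-processed vehicle for the same replicate, using vsn-normalised intensities.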

In the case of “B7Z4W5 and related entries (UniProt Q16773+B7Z4W5)”, the NP40-soluble protein abundance was 0.933 ± 0.079 (concentration: 1mM); 0.796 ± 0.15 (concentration: 2mM); 0.978 ± 0.047 (concentration: 4mM); 0.994 ± 0.2 (concentration: 6mM); 1.09 ± 0.17 (concentration: 8mM); 1.03 ± 0.15 (concentration: 10mM).

In the case of “C9JHH7 and related entries (UniProt Q8WUX1)”, the NP40-soluble protein abundance runs as follows: (concentration: 1mM) 0.958 ± 0.025; (concentration: 2mM) 0.9565 ± 0.0061; (concentration: 4mM) 0.998 ± 0.033; (concentration: 6mM) 1.05 ± 0.02; (concentration: 8mM) 1.06 ± 0.058; (concentration: 10mM) 1 ± 0.056.

As for “C9JF66 and related entries (UniProt Q6PIZ9)”, the NP40-soluble protein abundance reads like this: (concentration: 1mM) 1.01 ± 0.022; (concentration: 2mM) 1.03 ± 0.062; (concentration: 4mM) 1 ± 0.039; (concentration: 6mM) 0.987 ± 0.029; (concentration: 8mM) 0.966 ± 0.052; (concentration: 10mM) 0.961 ± 0.013.

Regarding “E2QRF9 and related entries (UniProt O75496)”, the NP40-soluble protein abundance was 1.01 ± 0.034 (concentration: 1mM); 1.02 ± 0.03 (concentration: 2mM); 1.012 ± 0.0034 (concentration: 4mM); 1 ± 0.023 (concentration: 6mM); 1.01 ± 0.033 (concentration: 8mM); 0.973 ± 0.034 (concentration: 10mM).

“B7Z2L0 and related entries (UniProt Q9UHQ4)”: the NP40-soluble protein abundance was found to be 1.04 ± 0.022 (concentration: 1mM); 1.08 ± 0.067 (concentration: 2mM); 1.02 ± 0.019 (concentration: 4mM); 1 ± 0.044 (concentration: 6mM); 0.969 ± 0.036 (concentration: 8mM); 0.972 ± 0.024 (concentration: 10mM).

For the target “C9J406 and related entries (UniProt Q16891)”, the NP40-soluble protein abundance by setting is: (concentration: 1mM) 0.997 ± 0.07; (concentration: 2mM) 1.01 ± 0.034; (concentration: 4mM) 0.938 ± 0.08; (concentration: 6mM) 0.946 ± 0.11; (concentration: 8mM) 0.922 ± 0.083; (concentration: 10mM) 0.939 ± 0.098.

With “C9JNW5 and related entries (UniProt P83731)”, the NP40-soluble protein abundance is, setting by setting: (concentration: 1mM) 0.955 ± 0.053; (concentration: 2mM) 0.987 ± 0.041; (concentration: 4mM) 0.903 ± 0.064; (concentration: 6mM) 0.92 ± 0.084; (concentration: 8mM) 0.813 ± 0.057; (concentration: 10mM) 0.976 ± 0.12.

On to “B7WPE2 and related entries (UniProt Q32P44)”, for which the NP40-soluble protein abundance reads like this: (concentration: 1mM) 0.997 ± 0.046; (concentration: 2mM) 0.987 ± 0.038; (concentration: 4mM) 1.02 ± 0.053; (concentration: 6mM) 1.02 ± 0.034; (concentration: 8mM) 1.04 ± 0.021; (concentration: 10mM) 1.06 ± 0.053.

As to “D6RC04 and related entries (UniProt Q9Y6G5)”, the NP40-soluble protein abundance was 0.97 ± 0.04 (concentration: 1mM); 0.987 ± 0.037 (concentration: 2mM); 0.999 ± 0.026 (concentration: 4mM); 0.975 ± 0.04 (concentration: 6mM); 0.988 ± 0.016 (concentration: 8mM); 0.96 ± 0.018 (concentration: 10mM).

As to “C9J6P4 and related entries (UniProt Q7Z2W4)”, the NP40-soluble protein abundance reads like this: (concentration: 1mM) 1.05 ± 0.04; (concentration: 2mM) 1.09 ± 0.035; (concentration: 4mM) 1.11 ± 0.038; (concentration: 6mM) 1.15 ± 0.028; (concentration: 8mM) 1.178 ± 0.0077; (concentration: 10mM) 1.2 ± 0.014.

For B7Z5R0 (UniProt Q9BV97), the NP40-soluble protein abundance (concentration: 1mM) was 0.9927 ± 0.0082; the NP40-soluble protein abundance (concentration: 2mM) was determined as 1.03 ± 0.013; the NP40-soluble protein abundance (concentration: 4mM) came out at 1.02 ± 0.026; the NP40-soluble protein abundance (concentration: 6mM) turned out to be 0.995 ± 0.018; the NP40-soluble protein abundance (concentration: 8mM) is 0.995 ± 0.021; the NP40-soluble protein abundance (concentration: 10mM) amounted to 0.98 ± 0.018.

Turning to “B7Z863 and related entries (UniProt Q14BN4)”, the NP40-soluble protein abundance came to 1 ± 0.033 (concentration: 1mM); 1.05 ± 0.037 (concentration: 2mM); 1.01 ± 0.034 (concentration: 4mM); 0.982 ± 0.053 (concentration: 6mM); 0.932 ± 0.024 (concentration: 8mM); 0.983 ± 0.016 (concentration: 10mM).

Turning to “B7ZBK4 and related entries (UniProt Q92664)”, the NP40-soluble protein abundance is, setting by setting: (concentration: 1mM) 1.01 ± 0.043; (concentration: 2mM) 1.01 ± 0.022; (concentration: 4mM) 1.02 ± 0.021; (concentration: 6mM) 0.982 ± 0.038; (concentration: 8mM) 1.02 ± 0.085; (concentration: 10mM) 1.02 ± 0.039.

With “B8ZZS2 and related entries (UniProt Q13506)”, the NP40-soluble protein abundance reads like this: (concentration: 1mM) 0.9966 ± 0.0056; (concentration: 2mM) 1.02 ± 0.019; (concentration: 4mM) 0.9788 ± 0.0084; (concentration: 6mM) 1.024 ± 0.0073; (concentration: 8mM) 1.01 ± 0.029; (concentration: 10mM) 1.008 ± 0.0093.

Consider “C9JLV4 and related entries (UniProt O14727)”, for which the NP40-soluble protein abundance runs as follows: (concentration: 1mM) 1.02 ± 0.053; (concentration: 2mM) 0.939 ± 0.095; (concentration: 4mM) 1.01 ± 0.017; (concentration: 6mM) 1 ± 0.013; (concentration: 8mM) 1.03 ± 0.02; (concentration: 10mM) 0.994 ± 0.053.
